Some of these results come from one statement about several compounds together. At least one compound was matched to its structure with a doubt left. Some compounds share one range, which may span the group rather than tell each member.
Legend:
NE-4C = assay: CCK-8 cell viability, NE-4C neural stem cell line; assay type: cell-based; conditions: brain neurons (NE-4C), FIG. 4
Method: (§1) CCK-8 (Cell counting kit-8) is analyzed using a highly water-soluble tetrazolium salt-[…]. [2-(2-methoxy-4-nitrophenyl)-3-(4-nitrophenyl)(2,4-disulfophenyl)-2H-tetrazolium, monosodium salt] is reduced under the presence of an electron medium to produces a water-soluble formazan orange dye. The amount of the formazan dye produced by dehydrogenase in a cell is directly proportional to the number of living cells.
In an experimental method for evaluating the properties of the compounds according to the present disclosure, various cancer cell lines derived from humans and normal cell lines of each tissue derived from humans and mice were used in this experiment. A complete growth medium corresponding to each cell line and having 10% of heat-inactivated FBS added thereto was used to maintain corresponding cells. The maintained cells were suspended in a volume of 200 μl at a density of 1 or 1.5×10^4 cells and planted in each well of a 96 well plate. The cells were attached to a 37° C. and 5% CO2 incubator for more than 14 hours, and we waited for a stable state. The next day, we removed the medium from the well. 100 μl of serum-free medium containing drugs of various concentrations (0 (control), 2.5, 5, 10, 20, 30, 40, 50, 100, 200 μM) was added to each well and the cells was cultured therein. On 22 hours after the incubation, 10 μl of CCK-8 solution was added to each well, followed by incubation for 2 hours. A plate on which the culture was completed was measured in terms of absorbance at 450 nm using a microplate reader.
Cell Viability Calculation:
(§2) • A: Absorbance value measured in a control well • B: Absorbance value measured in a well containing the drug
In Table 1 below, each compound was applied to the cells at 0, 2.5, 5, 10, 20, 30, 40, 50, 100, and 200 μM, and the cells was cultured in a medium free of serum for 24 hours. The measured absorbance value was converted to a % value based on a value of 0, such that a IC50 value was calculated. Each experiment was performed 2 to 3 times and a standard deviation value was obtained.

AML12 = assay: CCK-8 cell viability, AML-12 normal liver cell line; assay type: cell-based; conditions: normal hepatocytes (AML12), FIG. 4
Method: as §1
In an experimental method for evaluating the properties of the compounds according to the present disclosure, various cancer cell lines derived from humans and normal cell lines of each tissue derived from humans and mice were used in this experiment. A complete growth medium corresponding to each cell line and having 10% of heat-inactivated FBS added thereto was used to maintain corresponding cells. […] A plate on which the culture was completed was measured in terms of absorbance at 450 nm using a microplate reader. […]
as §2
In Table 1 below, each compound was applied to the cells at 0, 2.5, 5, 10, 20, 30, 40, 50, 100, and 200 μM, and the cells was cultured in a medium free of serum for 24 hours. The measured absorbance value was converted to a % value based on a value of 0, such that a IC50 value was calculated. […]

Row | SMILES | decrease in toxicity relative to cisplatin (NE-4C) [times] | cytotoxicity decrease relative to cisplatin (AML12)
1 | O=C(Nc1ccc(-c2nc3ccccc3s2)cc1)C1CNC(c2ccccn2)=N1.[Cl][Pt][Cl] (centres unmarked) [Example L3Pt] | 2 to 5 | 
2 | O=C(Nc1ccc(-c2nc3ccccc3s2)cc1)C(C/N=C/c1ccccc1O)/N=C/c1ccccc1O (centres unmarked) [Example L2, N-(4-benzothiazol-2-yl-phenyl)-2,3-bis-[(2-hydroxy-benzylidene)-amino]-propionamide] | 2 to 5 | 
3 | O=C(Nc1ccc(-c2nc3ccccc3s2)cc1)C1CNC(c2ccccn2)=N1 (centres unmarked) [Example L3, N-(4-(benzo[d]thiazol-2-yl)phenyl)-2-(pyridin-2-yl)-4,5-dihydro-1H-imidazole-4-carboxamide] | 2 to 5 | 
4 | NCC(N)C(=O)Nc1ccc(-c2nc3ccccc3s2)cc1.[Cl][Pt][Cl] (centres unmarked) [Example L1Pt] | 2 to 5 | more than 10 times
5 | O=C(Nc1ccc(-c2nc3ccccc3s2)cc1)C1CN=Cc2ccccc2[O][Pt][O]c2ccccc2C=N1 (centres unmarked) [Example L2Pt] | 2 to 5 | 
6 | NCC(N)C(=O)Nc1ccc(-c2nc3ccccc3s2)cc1 (centres unmarked) [Example L1, 2,3-diamoniumtrifluoroacetate-N-(4-benzothiazol-2-yl-phenyl)-propionamide] | 2 to 5 | more than 10 times
